Holding throughout (test): SEC; analytical gel filtration of IpaH7.8 incubated with GSDM (WT or mutants), fractions on Coomassie-stained SDS-PAGE; both purified
Assay [1] deals with GSDMB D17S/R20Ins mutant (human) (UniProt Q8TAX9).
Assay [2] has as its target human GSDMD D17S/R20Ins mutant (human) (UniProt P57764).
Assay [3] concerns the target T1, human GSDMD, full length (human), P57764.
T1 chain: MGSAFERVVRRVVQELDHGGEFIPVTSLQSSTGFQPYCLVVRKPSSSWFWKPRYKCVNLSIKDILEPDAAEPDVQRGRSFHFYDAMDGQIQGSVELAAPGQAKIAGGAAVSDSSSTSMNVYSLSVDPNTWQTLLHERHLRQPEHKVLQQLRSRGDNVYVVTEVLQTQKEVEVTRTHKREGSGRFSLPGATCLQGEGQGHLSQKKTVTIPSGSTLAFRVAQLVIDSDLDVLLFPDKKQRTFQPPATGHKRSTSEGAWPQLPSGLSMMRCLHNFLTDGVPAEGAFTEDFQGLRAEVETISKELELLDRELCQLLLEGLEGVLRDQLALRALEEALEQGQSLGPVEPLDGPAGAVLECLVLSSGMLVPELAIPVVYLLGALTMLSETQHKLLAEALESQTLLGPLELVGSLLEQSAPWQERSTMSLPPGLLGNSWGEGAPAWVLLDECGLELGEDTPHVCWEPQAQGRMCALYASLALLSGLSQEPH
The settings on record: remark: other sources report otherwise.

By UniProt entry, the sequences of proteins in these tests, tags left out. Where a name states a change or a piece, a line headed by the entry shows the natural chain unless it says otherwise. Chains listed by the source or under a name are the forms on record and can include a tag or linker.
GSDMB D17S/R20Ins mutant (Q8TAX9, form named): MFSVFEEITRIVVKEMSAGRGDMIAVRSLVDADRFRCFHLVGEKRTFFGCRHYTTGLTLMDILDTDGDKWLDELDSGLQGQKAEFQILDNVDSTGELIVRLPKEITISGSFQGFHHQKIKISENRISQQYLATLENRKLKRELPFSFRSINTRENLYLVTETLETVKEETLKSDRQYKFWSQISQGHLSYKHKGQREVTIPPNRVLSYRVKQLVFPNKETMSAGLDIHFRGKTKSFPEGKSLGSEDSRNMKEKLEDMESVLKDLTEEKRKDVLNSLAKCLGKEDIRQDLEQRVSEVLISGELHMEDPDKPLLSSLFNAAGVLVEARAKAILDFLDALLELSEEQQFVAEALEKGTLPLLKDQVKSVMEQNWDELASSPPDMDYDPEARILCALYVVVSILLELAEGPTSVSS

Results are given in words; binding and its absence hold for the method and conditions named. Some entries that bind do so weakly or less than the wild type. For part of these data: Where a sequence is shown, tags or fusion partners need not be part of it.

For the molecule “Shigella flexneri IpaH7.8 (wild type), C-terminal 6XHis construct (from UniProt P18014 1-565) (enzyme)”, the binding result in assay [1] and in assay [2] was “no binding” throughout.

B1: Shigella flexneri IpaH7.8 without affinity tag (co-expressed with GSDMB) (enzyme)
chain: MFSVNNTHSSVSCSPSINSNSTSNEHYLRILTEWEKNSSPGEERGIAFNRLSQCFQNQEAVLNLSDLNLTSLPELPKHISALIVENNKLTSLPKLPAFLKELNADNNRLSVIPELPESLTTLSVRSNQLENLPVLPNHLTSLFVENNRLYNLPALPEKLKFLHVYYNRLTTLPDLPDKLEILCAQRNNLVTFPQFSDRNNIRQKEYYFHFNQITTLPESFSQLDSSYRINISGNPLSTRVLQSLQRLTSSPDYHGPQIYFSMSDGQQNTLHRPLADAVTAWFPENKQSDVSQIWHAFEHEEHANTFSAFLDRLSDTVSARNTSGFREQVAAWLEKLSASAELRQQSFAVAADATESCEDRVALTWNNLRKTLLVHQASEGLFDNDTGALLSLGREMFRLEILEDIARDKVRTLHFVDEIEVYLAFQTMLAEKLQLSTAVKEMRFYGVSGVTANDLRTAEAMVRSREENEFTDWFSLWGPWHAVLKRTEADRWAQAEEQKYEMLENEYSQRVADRLKASGLSGDADAEREAGAQVMRETEQQIYRQLTDEVLALRLSENGSRLHHS
notes: only the LRR domain is visible in the map; source: E. coli BL21 (DE3), co-expressed with His6-SUMO-GSDMB, complex purified (Ni-NTA, Hitrap Q, Superdex 200)
Consider B1, for which, in assay [3], the binding entry is “binds”.

The values are drawn from paper PMC10115629, “Structural basis for GSDMB pore formation and its targeting by IpaH7.8” (Nature, 2023).
